The RNAGym collection of RNA variant scans (doi:10.1126/science.aae0568)
Variants at the floor of the assay are shown more often than the library holds them.

B1: tRNA (parent)
chain: GUUCCGUUGGCGUAAUGGUAACGCGUCUCCCUCCUAAGGAGAAGACUGCGGGUUCGAGUCCCGUACGGAACG

Variants of: B1
Test: yeast fitness relative to wild type (ratio to wild type); higher = fitter; tRNA-Arg(CCU), competitive growth, 37 C, YPD
How it was run: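 Gene amplicons from the start population and from each of six end populations were read by 100-nucleotide paired-end sequencing. Those end populations came from pooled Saccharomyces cerevisiae strains carrying tRNA-Arg(CCU) gene variants at the native locus, competed in YPD at 37°C for 24 hours. Fitness relative to wild type was worked out from changes in genotype frequencies. Genotypes needed ≥ 100 starting reads, and estimates < 0.5 were set to 0.5.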

**Q.** For GUUGCGUUGGCGUAAUAGUAACGCGCCUCCCUCCUAAGGAGAAGACUGCGGGUUCGAGUCACGUACGGAACG [C4G G17A U26C C61A], which yeast fitness is on record?
**A.** The yeast fitness was ≤ 0.5.

**Q.** With GUUGCGUUGGCGUAAUCGUCACGCGUCACCCUCCUAAGGAGAAGAAUGCGGGUUCGAGUCCCGUACGGAACG [C4G G17C A20C U28A C46A] as the variant, how does the yeast fitness read?
**A.** Its yeast fitness is ≤ 0.5.

**Q.** For GUUGCGUUGGCGUAAUCGUAACGCGUCUCCCUCCUAUGGAGAAGACUGCGGGUUCGAGUCCCGUACGGAACG [C4G G17C A37U], which yeast fitness is on record?
**A.** Its yeast fitness is ≤ 0.5.

**Q.** For GUUGCGUUGGCGUAAUCGUAACGCGUCUCCCUACUAAGGAGAAGACUGCGGGUUCCAGUCCCGUACGGACCG [C4G G17C C33A G56C A70C], which yeast fitness is on record?
**A.** The yeast fitness was 0.542.

**Q.** Which yeast fitness does the source give for GUUGCGUUGGCGUAAUCGUAACGCGUCUCCCUGCUAAGGAGAAGACAGCGGGUUCGAGUCCCGUACGCAACG [C4G G17C C33G U47A G68C] here?
**A.** The yeast fitness was ≤ 0.5.

**Q.** For GUUGCGUUGGCGUAAUGAUAACGCGUCUCCCUCCUAAGGAGAAGCCUGCGGGUUCGAGUCCCGUACGGAACG [C4G G18A A45C], which yeast fitness is on record?
**A.** The yeast fitness was ≤ 0.5.

**Q.** Which yeast fitness does the source give for GUUGCGUUGGCGUAAUGCUAACGCGUCUCCCUCCUACGGAGAAGACUGCGGGUUCGCGUCCCGUACGGAACG [C4G G18C A37C A57C] here?
**A.** The yeast fitness was ≤ 0.5.

**Q.** With GUUGCGUUGGCGUAAUGCUAACGCGUCUCACUCCUAAGGAGAAGACUGCGGGUUCGAGUCCCGUACGGACCG [C4G G18C C30A A70C] as the variant, how does the yeast fitness read?
**A.** The yeast fitness was ≤ 0.5.

**Q.** Which yeast fitness does the source give for GUUGCGUUGGCGUAAUGCUAACGCGUCUCCCUCCUAAGGAGAAGACUGCGGGUUGGAGUCCCGUACGGAACG [C4G G18C C55G] here?
**A.** The yeast fitness was ≤ 0.5.

**Q.** For GUUGCGUUGGCGUAAUGGUAACACGUUUCCCUCCUAAGGAGAAGAUUGCGGGUUCGAGUCCCGUACGGAACG [C4G G23A C27U C46U], which yeast fitness is on record?
**A.** The yeast fitness was ≤ 0.5.

**Q.** Which yeast fitness does the source give for GUUGCGUUGGCGUAAUGGUAACCCGUCUCCCUCCUAAGGAGAAGACUGCGGGUUUGAGUCCCGUACGGAUCG [C4G G23C C55U A70U] here?
**A.** Its yeast fitness is ≤ 0.5.

**Q.** With GUUGCGUUGGCGUAAUGGUAACCCGUCUCCCUCCUAAGGAGAAGACUGCGGGUUCGAAUCCCGUACGGAACG [C4G G23C G58A] as the variant, how does the yeast fitness read?
**A.** Its yeast fitness is ≤ 0.5.

**Q.** For GUUGCGUUGGCGUAAUGGUAACGCGUCUCCCUCCUAACGAGAAAACUGCGGGUUCGAGUCCCGUACGGAACG [C4G G38C G44A], which yeast fitness is on record?
**A.** Its yeast fitness is ≤ 0.5.

**Q.** Which yeast fitness does the source give for GUUGCGUUGGCGUAAUGGUAACGCGUCUCCCUCCUAAGGAAAAGUCUGCGGGUUCCAGUCCCGUACGGAACG [C4G G41A A45U G56C] here?
**A.** Its yeast fitness is ≤ 0.5.

**Q.** With GUUGCGUUGGCGUAAUGGUAACGCGUCUCCCUCCUAAGGAGAAGACUGCGGGUUCCAGACCCGUGCGGAACG [C4G G56C U59A A65G] as the variant, how does the yeast fitness read?
**A.** The yeast fitness was ≤ 0.5.

**Q.** Which yeast fitness does the source give for GUUGCGAUGGCGUAAUGGUAACGCGUCUCCCUCCUAAGGAGAAGACUGCGGGUUCGUGUCCCGUACGGAACG [C4G U7A A57U] here?
**A.** The yeast fitness was ≤ 0.5.

**Q.** Which yeast fitness does the source give for GUUGCGAUGGCGUAAUGGUAACGCGUCUUCCUCCUAAGGAGAAAACUGCGGGUUCGAGUCCCGUACGGAACG [C4G U7A C29U G44A] here?
**A.** The yeast fitness was ≤ 0.5.

**Q.** With GUUGCGCUGGCGUAAUGGUAACGCGUCUCCCUCCUAAGGAGAUGACUGCGGGUUCGAGUCCCGUACGGAACG [C4G U7C A43U] as the variant, how does the yeast fitness read?
**A.** Its yeast fitness is ≤ 0.5.

**Q.** Which yeast fitness does the source give for GUUGCGCUGGCGUAAUGGUAACGCGUCUCCCUGCUAAGGAGAAGACUGCGGAUUCGAGUCCCGUACGGAACG [C4G U7C C33G G52A] here?
**A.** Its yeast fitness is 0.652.

**Q.** For GUUGCGGUGGCGUAAUGGUGACGCGUCUCCCUCCUAAGGAGAAGACUGCGGGUUCGAGUCCCGUACGGAACG [C4G U7G A20G], which yeast fitness is on record?
**A.** Its yeast fitness is ≤ 0.5.

**Q.** With GUUGCGGUGGCGUAAUGGUAACGCGUCUACCUCCUAAGGAGAAGACUGCGGGAUCGAGUGCCGUACGGAACG [C4G U7G C29A U53A C60G] as the variant, how does the yeast fitness read?
**A.** Its yeast fitness is ≤ 0.5.

**Q.** Which yeast fitness does the source give for GUUGCGGUGGCCUAAUGGUUACGCGUCUCCCUCCCAAGGAGAAAACUCCGGGUUGGAGUCCCGUACGGUACG [C4G U7G G12C A20U U35C G44A G48C C55G A69U] here?
**A.** Its yeast fitness is ≤ 0.5.

**Q.** For GUUGCGUAGGCAUAAUGGUAACGCGUCUCCCUCCUAAGGAGAAGACUGCGGGUUCGAGUCCGGUACGGAACG [C4G U8A G12A C62G], which yeast fitness is on record?
**A.** The yeast fitness was ≤ 0.5.

**Q.** With GUUGCGUAGGCGUAAGGGCACCGCGUCUCCCUCCUAAGGAGAAGACUGUAGGUUCGAGUCCCGUACGGAACG [C4G U8A U16G U19C A21C C49U G50A] as the variant, how does the yeast fitness read?
**A.** Its yeast fitness is ≤ 0.5.

**Q.** With GUUGCGUCGGCGUAAUGGUAACGUGUCUCCCUCCUAAGGAGAGGACUGCGGGUUCGAGUCCCGUACGGAACG [C4G U8C C24U A43G] as the variant, how does the yeast fitness read?
**A.** Its yeast fitness is 0.527.

**Q.** Which yeast fitness does the source give for GUUGCGUCGGCGUAAUGGUAACGCGUCUCCCUCCUAAGGAGAAGACUCCGGGUUCGAGUCCCGUACGGAACG [C4G U8C G48C] here?
**A.** Its yeast fitness is 0.568.

**Q.** For GUUGCGUCGGCGUAAUGGUAACGCGUCUCCCACCUACGGAGAAGACUGGGGGUUCGAGUCCCGCACGGAACG [C4G U8C U32A A37C C49G U64C], which yeast fitness is on record?
**A.** Its yeast fitness is ≤ 0.5.

**Q.** With GUUGCGUGGGCGUAAUGGUAACGGGUCUCCCUCCUAAGGAGAAGACUGCGGGUUCGAGUCCCGUACGGAACG [C4G U8G C24G] as the variant, how does the yeast fitness read?
**A.** Its yeast fitness is ≤ 0.5.

**Q.** Which yeast fitness does the source give for GUUGCGUGGGCGUAAUGGUAACGCGUGUCCCUCCUAAGGAGAAGACUGCGGGUUCAAGUCCCGUACGGAACG [C4G U8G C27G G56A] here?
**A.** The yeast fitness was ≤ 0.5.

**Q.** With GUUGCGUUGGCGUAAAGGUAACGCGUCUCCCUCCUCAGGAGAAGACUGCGGGUUCGAGUCCCGUACGGAACG [C4G U16A A36C] as the variant, how does the yeast fitness read?
**A.** The yeast fitness was 0.579.

**Q.** Which yeast fitness does the source give for GUUGCGUUGGCGUAACGGUAACGCGUCUCCCUCCUAAGGACAAGACUGCGGGUUCGAGUCCUGUACGGAACG [C4G U16C G41C C62U] here?
**A.** Its yeast fitness is ≤ 0.5.

**Q.** For GUUGCGUUGGCGUAAUGGUAACGCGACUCCCUCCUAUGGAGAAGACUGCGGGUUCGAGUCCCGUACGGAACG [C4G U26A A37U], which yeast fitness is on record?
**A.** The yeast fitness was ≤ 0.5.

**Q.** For GUUGCGUUGGCGUAAUGGUAACGCGACUCCCUCCUAAGGAGAAGACGGCGGGUCCGAGUCCCGUACGGAACG [C4G U26A U47G U54C], which yeast fitness is on record?
**A.** The yeast fitness was ≤ 0.5.

**Q.** Which yeast fitness does the source give for GUUGCGUUGGCGUAAUGGUAACGCGUCCCCCUGCUAAAGAGAAGACUGCGGGUUCGAGUCCGGGACGGAACG [C4G U28C C33G G38A C62G U64G] here?
**A.** The yeast fitness was ≤ 0.5.

**Q.** Which yeast fitness does the source give for GUUGCGUUGGCGUAAUGGUAACGCGUCUCCCUCCGAAGGAGCAGACUGCGGGUUCGAGUCCCGUACGGAACG [C4G U35G A42C] here?
**A.** Its yeast fitness is ≤ 0.5.

**Q.** Which yeast fitness does the source give for GUUGCGUUGGCGUAAUGGUAACGCGUCUCCCUCCUAAGGAGAAGACUGCGGGUACGAGACCCGUACAGAACG [C4G U54A U59A G67A] here?
**A.** The yeast fitness was ≤ 0.5.

**Q.** With GUUUCGUUGGCGUCUUGGUAACGCGUCUCCCUCCUAAGGAGAAGACUGCGGGUUCGAGUCCCGUACGGAACG [C4U A14C A15U] as the variant, how does the yeast fitness read?
**A.** Its yeast fitness is ≤ 0.5.
